# Test results taken from the supplement of paper PMC12819154, “High-throughput peptide-centric local stability assay extends protein–ligand identification to membrane proteins, tissues and bacteria” (Nature Structural & Molecular Biology, 2025).
# Amino acid sequences for entries named in this document (tags omitted). A change or cut given only in a name is not applied to a line headed by its entry.
# UniProt P08238, whole entry: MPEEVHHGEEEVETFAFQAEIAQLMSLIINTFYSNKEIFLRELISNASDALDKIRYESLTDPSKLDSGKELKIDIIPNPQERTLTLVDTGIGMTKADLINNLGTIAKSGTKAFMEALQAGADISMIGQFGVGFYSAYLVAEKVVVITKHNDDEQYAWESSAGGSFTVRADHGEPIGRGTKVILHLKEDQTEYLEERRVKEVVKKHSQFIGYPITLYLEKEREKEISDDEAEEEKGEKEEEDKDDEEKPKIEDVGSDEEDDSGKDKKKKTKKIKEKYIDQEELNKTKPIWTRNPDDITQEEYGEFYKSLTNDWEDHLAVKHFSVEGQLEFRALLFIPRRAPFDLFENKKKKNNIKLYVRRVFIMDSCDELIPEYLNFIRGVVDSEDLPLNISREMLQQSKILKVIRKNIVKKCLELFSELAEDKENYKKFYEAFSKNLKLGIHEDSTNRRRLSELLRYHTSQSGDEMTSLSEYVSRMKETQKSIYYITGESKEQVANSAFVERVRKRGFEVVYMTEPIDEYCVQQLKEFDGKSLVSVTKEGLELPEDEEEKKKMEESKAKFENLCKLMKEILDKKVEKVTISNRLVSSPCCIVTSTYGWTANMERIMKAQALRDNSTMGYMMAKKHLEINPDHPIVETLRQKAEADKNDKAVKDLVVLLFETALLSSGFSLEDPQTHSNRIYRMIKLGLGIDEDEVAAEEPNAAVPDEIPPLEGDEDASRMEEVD
# UniProt P01033: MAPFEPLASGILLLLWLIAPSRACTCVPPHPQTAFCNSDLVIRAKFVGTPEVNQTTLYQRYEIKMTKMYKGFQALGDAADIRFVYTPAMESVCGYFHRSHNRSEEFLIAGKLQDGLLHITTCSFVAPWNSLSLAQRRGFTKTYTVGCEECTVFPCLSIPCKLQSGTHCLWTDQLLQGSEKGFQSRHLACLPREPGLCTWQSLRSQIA
# UniProt P10109: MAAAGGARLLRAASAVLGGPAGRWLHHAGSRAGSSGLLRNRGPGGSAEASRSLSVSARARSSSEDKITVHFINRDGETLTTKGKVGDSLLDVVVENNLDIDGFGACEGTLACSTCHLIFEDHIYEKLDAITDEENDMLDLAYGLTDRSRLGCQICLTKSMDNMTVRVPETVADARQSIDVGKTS
# UniProt P11586, whole entry: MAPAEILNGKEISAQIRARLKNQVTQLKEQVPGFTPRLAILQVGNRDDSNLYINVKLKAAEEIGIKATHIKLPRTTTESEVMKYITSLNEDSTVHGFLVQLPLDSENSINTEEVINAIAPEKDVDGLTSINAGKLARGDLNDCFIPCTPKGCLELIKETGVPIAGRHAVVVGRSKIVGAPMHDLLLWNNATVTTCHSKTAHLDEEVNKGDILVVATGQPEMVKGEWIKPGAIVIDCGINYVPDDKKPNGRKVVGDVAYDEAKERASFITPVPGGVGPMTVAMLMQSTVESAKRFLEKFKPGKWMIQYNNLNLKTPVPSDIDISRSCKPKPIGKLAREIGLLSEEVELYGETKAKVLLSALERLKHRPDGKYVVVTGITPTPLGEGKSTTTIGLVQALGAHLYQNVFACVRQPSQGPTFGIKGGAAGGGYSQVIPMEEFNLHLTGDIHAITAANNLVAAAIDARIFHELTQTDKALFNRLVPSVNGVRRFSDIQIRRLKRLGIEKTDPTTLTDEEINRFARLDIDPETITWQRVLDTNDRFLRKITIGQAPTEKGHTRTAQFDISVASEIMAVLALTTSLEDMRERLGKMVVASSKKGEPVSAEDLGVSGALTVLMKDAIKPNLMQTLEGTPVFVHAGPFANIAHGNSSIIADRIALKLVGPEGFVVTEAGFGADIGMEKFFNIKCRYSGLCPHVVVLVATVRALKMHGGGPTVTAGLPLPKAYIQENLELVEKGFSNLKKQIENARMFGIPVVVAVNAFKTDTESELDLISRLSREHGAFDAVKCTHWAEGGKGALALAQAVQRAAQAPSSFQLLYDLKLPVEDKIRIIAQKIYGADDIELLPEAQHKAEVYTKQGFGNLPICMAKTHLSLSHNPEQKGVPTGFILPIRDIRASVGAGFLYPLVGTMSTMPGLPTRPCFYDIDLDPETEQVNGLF
# UniProt P08236: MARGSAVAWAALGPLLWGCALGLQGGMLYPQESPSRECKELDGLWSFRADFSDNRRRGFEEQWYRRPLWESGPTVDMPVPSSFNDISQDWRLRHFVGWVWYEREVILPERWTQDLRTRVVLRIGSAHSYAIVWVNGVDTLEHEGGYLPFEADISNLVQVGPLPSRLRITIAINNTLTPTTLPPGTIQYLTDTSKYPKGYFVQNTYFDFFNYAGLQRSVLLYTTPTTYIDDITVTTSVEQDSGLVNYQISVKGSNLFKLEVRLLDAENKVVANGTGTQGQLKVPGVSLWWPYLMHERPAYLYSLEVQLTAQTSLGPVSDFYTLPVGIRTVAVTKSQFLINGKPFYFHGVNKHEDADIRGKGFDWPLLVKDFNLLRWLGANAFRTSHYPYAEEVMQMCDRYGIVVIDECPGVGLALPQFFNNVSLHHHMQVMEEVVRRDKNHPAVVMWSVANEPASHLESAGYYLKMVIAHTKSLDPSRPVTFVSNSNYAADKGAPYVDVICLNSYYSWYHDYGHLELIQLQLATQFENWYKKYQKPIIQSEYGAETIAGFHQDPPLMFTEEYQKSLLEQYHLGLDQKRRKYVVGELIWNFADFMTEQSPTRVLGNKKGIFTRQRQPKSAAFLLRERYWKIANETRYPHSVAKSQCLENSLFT
# UniProt P00966: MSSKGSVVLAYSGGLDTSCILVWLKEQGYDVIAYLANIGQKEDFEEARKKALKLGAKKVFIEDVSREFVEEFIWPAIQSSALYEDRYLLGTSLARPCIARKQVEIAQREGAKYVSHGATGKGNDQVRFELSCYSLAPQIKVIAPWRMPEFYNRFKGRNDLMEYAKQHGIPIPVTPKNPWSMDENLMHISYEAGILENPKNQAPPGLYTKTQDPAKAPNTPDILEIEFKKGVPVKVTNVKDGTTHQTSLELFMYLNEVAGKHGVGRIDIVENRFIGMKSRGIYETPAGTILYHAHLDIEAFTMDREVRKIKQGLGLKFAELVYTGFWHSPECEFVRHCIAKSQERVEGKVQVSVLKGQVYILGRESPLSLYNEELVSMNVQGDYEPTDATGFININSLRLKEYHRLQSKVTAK
# UniProt P0DMV8, whole entry, looked up: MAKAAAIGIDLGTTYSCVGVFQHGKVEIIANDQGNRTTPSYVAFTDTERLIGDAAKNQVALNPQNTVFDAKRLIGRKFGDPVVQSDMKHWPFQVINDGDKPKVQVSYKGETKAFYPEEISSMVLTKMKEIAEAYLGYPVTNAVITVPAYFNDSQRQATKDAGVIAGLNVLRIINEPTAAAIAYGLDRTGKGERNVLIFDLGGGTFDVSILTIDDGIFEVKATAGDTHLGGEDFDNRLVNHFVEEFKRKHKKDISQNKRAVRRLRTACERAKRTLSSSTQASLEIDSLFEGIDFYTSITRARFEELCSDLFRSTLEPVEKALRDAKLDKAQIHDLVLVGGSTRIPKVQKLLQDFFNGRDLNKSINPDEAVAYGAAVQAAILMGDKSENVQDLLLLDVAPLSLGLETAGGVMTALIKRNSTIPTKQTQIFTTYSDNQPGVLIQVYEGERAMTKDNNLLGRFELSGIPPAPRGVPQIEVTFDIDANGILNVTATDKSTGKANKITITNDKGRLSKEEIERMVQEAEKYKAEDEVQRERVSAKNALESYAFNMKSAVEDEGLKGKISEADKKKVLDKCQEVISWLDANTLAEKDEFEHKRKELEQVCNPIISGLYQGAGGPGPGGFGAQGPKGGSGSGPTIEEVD
# UniProt P02792: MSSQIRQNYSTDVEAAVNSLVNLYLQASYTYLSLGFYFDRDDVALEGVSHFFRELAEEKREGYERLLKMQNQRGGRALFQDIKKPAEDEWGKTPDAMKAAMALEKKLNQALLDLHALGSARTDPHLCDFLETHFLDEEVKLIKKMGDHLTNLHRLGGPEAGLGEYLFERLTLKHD
# UniProt P09012, whole entry: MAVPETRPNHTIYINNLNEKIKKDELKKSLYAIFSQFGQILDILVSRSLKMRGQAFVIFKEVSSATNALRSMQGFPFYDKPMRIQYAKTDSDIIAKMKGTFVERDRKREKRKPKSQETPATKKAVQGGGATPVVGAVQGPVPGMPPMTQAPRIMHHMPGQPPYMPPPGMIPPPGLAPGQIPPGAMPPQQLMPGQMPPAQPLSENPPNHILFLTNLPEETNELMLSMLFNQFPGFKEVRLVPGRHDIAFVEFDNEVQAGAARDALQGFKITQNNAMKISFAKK
# UniProt P04920: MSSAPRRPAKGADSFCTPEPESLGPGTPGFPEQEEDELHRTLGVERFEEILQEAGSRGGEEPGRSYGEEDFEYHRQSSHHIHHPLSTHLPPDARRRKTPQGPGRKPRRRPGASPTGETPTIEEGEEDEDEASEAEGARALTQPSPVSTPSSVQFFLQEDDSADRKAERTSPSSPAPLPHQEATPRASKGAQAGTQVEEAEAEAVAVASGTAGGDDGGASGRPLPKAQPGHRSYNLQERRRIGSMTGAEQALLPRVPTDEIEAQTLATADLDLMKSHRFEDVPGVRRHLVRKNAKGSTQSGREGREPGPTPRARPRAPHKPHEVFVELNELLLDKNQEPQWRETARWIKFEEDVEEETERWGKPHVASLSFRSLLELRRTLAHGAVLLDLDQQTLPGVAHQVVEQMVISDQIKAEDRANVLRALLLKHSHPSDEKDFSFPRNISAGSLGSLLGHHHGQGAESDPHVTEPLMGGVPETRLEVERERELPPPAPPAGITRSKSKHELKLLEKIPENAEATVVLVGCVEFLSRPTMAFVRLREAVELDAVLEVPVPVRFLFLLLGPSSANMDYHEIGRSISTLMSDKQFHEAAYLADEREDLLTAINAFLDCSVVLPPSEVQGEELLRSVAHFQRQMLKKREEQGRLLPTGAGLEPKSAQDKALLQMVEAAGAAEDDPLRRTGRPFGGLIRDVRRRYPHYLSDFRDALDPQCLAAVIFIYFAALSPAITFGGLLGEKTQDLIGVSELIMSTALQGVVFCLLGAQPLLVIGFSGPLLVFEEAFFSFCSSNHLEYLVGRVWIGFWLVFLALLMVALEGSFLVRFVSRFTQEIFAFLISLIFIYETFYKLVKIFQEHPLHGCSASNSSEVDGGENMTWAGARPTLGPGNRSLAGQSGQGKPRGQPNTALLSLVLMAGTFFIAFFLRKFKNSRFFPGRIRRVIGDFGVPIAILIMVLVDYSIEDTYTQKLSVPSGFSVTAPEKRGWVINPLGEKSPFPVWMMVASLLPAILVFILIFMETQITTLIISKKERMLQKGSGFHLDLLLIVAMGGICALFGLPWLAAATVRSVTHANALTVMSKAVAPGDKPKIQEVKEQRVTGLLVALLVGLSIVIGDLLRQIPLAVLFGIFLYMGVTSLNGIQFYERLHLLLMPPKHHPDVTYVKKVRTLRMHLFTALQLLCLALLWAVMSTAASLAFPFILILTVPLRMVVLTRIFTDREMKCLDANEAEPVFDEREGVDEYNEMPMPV
# UniProt P0DMB2: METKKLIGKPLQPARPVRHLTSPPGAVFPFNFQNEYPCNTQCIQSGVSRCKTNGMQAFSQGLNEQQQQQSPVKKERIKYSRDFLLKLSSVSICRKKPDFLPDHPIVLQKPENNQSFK
# UniProt P0CG13, whole entry: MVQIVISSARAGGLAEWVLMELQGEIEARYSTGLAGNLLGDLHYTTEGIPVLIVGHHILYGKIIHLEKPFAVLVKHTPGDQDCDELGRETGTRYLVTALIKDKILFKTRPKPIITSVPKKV
# UniProt P08048: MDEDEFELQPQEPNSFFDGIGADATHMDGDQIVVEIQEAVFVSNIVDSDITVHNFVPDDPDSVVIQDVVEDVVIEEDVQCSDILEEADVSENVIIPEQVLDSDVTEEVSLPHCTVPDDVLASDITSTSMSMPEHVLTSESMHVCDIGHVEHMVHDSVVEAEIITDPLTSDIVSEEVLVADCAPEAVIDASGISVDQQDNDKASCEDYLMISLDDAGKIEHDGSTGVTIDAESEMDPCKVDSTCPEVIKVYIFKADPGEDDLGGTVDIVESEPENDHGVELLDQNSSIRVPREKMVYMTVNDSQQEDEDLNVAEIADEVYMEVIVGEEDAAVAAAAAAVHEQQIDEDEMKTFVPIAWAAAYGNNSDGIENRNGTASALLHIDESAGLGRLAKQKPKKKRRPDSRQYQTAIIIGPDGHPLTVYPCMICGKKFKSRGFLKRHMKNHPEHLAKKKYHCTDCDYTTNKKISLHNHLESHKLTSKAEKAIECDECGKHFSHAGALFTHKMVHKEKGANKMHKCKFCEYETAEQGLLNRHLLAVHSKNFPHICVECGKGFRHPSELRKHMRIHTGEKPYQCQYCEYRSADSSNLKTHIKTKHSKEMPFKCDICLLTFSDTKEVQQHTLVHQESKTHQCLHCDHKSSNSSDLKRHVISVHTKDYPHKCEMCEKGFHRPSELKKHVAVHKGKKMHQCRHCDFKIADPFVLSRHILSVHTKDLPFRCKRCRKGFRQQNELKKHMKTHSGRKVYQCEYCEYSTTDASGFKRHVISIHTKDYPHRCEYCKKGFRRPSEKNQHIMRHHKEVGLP
# The list shows a part of the results. Most entries show no effect beyond the scatter of the controls.
# Compound: Cc1nc(Nc2ncc(C(=O)Nc3c(C)cccc3Cl)s2)cc(N2CCN(CCO)CC2)n1 [dasatinib]
# Assay: log2 fold change of tryptic peptide abundance, ligand vs vehicle (limited proteolysis) (log2 ratio); higher = more trypsin-susceptible (destabilized)
# Conditions: ligand concentration: 5 uM; sample: K562 cleared lysate
row,Target,log2 fold change
1,"GSTP1 (peptide sequence: MPPYTVVYFPVRGR, peptide start residue: 1) (UniProt P09211)",0.383
2,"MRPL3 (peptide sequence: RPGAVATGDIGR, peptide start residue: 239) (UniProt P09001)",-0.31
3,"UniProt P0CJ79 (peptide sequence: CDVCGKDFNQKR, peptide start residue: 244)",-0.982
4,"CFH (peptide sequence: TGESVEFVCKR, peptide start residue: 1193) (UniProt P08603)",0.0192
5,"HSP90AB1 (peptide sequence: APFDLFENK, peptide start residue: 339) (UniProt P08238)",-0.18
6,"UniProt P06401 (peptide sequence: KNCPACR, peptide start residue: 471)",-0.448
7,"TIMP1 (peptide sequence: GFQALGDAADIR, peptide start residue: 71) (UniProt P01033)",-0.0892
8,"FDX1 (peptide sequence: QSIDVGKTS, peptide start residue: 176) (UniProt P10109)",-0.248
9,"MTHFD1 (peptide sequence: KVVGDVAYDEAK, peptide start residue: 251) (UniProt P11586)",0.154
10,"HSPA8 (peptide sequence: RNTTIPTK, peptide start residue: 416) (UniProt P11142)",0.727
11,"SPTA1 (peptide sequence: KFDEFQK, peptide start residue: 1119) (UniProt P02549)",0.369
12,"GUSB (peptide sequence: WLGANAFR, peptide start residue: 375) (UniProt P08236)",-0.11
13,"PABPC1 (peptide sequence: AVDEMNGKELNGK, peptide start residue: 247) (UniProt P11940)",0.103
14,"ASS1 (peptide sequence: NQAPPGLYTK, peptide start residue: 200) (UniProt P00966)",0.216
15,"ZNF688 (peptide sequence: KEEEPEEVPR, peptide start residue: 110) (UniProt P0C7X2)",-0.409
16,"CAT (peptide sequence: LGPNYLHIPVNCPYR, peptide start residue: 366) (UniProt P04040)",0.155
17,"PCCB (peptide sequence: ICCDLDVLASK, peptide start residue: 515) (UniProt P05166)",0.257
18,"NR2C1 (peptide sequence: QFILTNHDGSTPSK, peptide start residue: 43) (UniProt P13056)",-0.127

# Quoted from the listing.
# Under log2 fold change, ASS1 (peptide sequence: NQAPPGLYTK, peptide start residue: 200) (UniProt P00966) has 0.216
# Under log2 fold change, CAT (peptide sequence: LGPNYLHIPVNCPYR, peptide start residue: 366) (UniProt P04040) has 0.155

# Later entries

row,Target,log2 fold change
1,"GYS1 (peptide sequence: VGGIYTVLQTK, peptide start residue: 40) (UniProt P13807)",-0.389
2,"UniProt P0DMV8 (peptide sequence: AQIHDLVLVGGSTR, peptide start residue: 329)",0.125
3,"ITGB1 (peptide sequence: WDTGENPIYK, peptide start residue: 775) (UniProt P05556)",0.0811
4,"FTL (peptide sequence: LNQALLDLHALGSAR, peptide start residue: 107) (UniProt P02792)",-0.0469
5,"UniProt P02144 (peptide sequence: KKGHHEAEIK, peptide start residue: 79)",0.183
6,"XRCC5 (peptide sequence: SQLDIIIHSLKK, peptide start residue: 145) (UniProt P13010)",0.201
7,"SNRPA (peptide sequence: SMQGFPFYDKPMR, peptide start residue: 71) (UniProt P09012)",0.582
8,"FBXO45 (peptide sequence: TDILCNLPSYK, peptide start residue: 94) (UniProt P0C2W1)",0.126
9,"PIM1 (peptide sequence: GALQEELAR, peptide start residue: 137) (UniProt P11309)",-0.426
10,"PC (peptide sequence: SFQPDTGRIEVFR, peptide start residue: 386) (UniProt P11498)",-0.122
11,"GBA (peptide sequence: ATLGETHR, peptide start residue: 361) (UniProt P04062)",0.321
12,"SLC4A2 (peptide sequence: SYGEEDFEYHR, peptide start residue: 65) (UniProt P04920)",0.266
13,"C8orf88 (peptide sequence: LSSVSICR, peptide start residue: 87) (UniProt P0DMB2)",0.078
14,"SLC3A2 (peptide sequence: IGDLQAFQGHGAGNLAGLK, peptide start residue: 227) (UniProt P08195)",-0.35
15,"RB1 (peptide sequence: LRFDIEGSDEADGSKHLPGESK, peptide start residue: 875) (UniProt P06400)",-0.821
16,"UniProt P0CG13 (peptide sequence: TRPKPIITSVPK, peptide start residue: 108)",0.388
17,"EPB41 (peptide sequence: EGEGLEECSKIEVK, peptide start residue: 172) (UniProt P11171)",0.338
18,"UniProt P08048 (peptide sequence: SSNSSDLKR, peptide start residue: 642)",0.442
